Source: PubChem BioAssay AID588590 (National Center for Advancing Translational Sciences (NCATS), 2011)
Hit rate of the full screen: of about 390,000 compounds, about 4,000 (1%) were called active. The shares of active, inactive and inconclusive entries below differ from those in the screen. Calls come from the whole dose curve; as a rule, active = well fitted inhibition curve with a large enough effect; inconclusive = small, poorly fitted or top-dose-only effect, or another doubt; inactive = no such curve, though single readings can be large or run the other way. Potencies beside an inconclusive call are fits to weak or partial responses and may not hold up.

Amino acid sequences for entries named in this document (tags omitted). A change or cut given only in a name is not applied to a line headed by its entry.
UniProt Q9UNA4: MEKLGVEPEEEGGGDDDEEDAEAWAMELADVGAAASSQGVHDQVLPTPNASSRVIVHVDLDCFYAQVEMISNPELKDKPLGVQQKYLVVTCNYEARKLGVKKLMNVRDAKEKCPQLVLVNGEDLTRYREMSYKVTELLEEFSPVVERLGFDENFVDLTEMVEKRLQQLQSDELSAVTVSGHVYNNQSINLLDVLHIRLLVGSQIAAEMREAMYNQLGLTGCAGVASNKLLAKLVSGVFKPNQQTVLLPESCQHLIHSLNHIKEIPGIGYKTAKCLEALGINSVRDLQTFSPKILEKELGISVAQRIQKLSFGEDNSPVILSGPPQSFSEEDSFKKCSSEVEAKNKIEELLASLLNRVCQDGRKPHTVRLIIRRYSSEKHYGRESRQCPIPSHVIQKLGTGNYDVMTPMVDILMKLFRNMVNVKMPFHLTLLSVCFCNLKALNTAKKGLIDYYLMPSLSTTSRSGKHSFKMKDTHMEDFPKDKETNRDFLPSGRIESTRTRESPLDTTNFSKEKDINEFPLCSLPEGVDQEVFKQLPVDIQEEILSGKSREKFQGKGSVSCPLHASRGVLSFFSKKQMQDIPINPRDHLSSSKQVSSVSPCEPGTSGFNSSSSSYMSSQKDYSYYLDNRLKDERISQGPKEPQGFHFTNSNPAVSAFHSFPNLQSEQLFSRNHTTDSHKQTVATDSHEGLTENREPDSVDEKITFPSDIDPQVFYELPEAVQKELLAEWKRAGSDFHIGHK

These compounds were tested against DNA polymerase iota (Homo sapiens) (UniProt Q9UNA4) (assay: qHTS for Inhibitors of Polymerase Iota). Conditions: Pol iota fluorescent replication assay, 10 min; series mostly up to 115 µM; activity, negative = inhibition: at the top concentration.
In short: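 Fluorescent replication assay read twice, at 0 min and 10 min after adding 50 nM (final) substrate. Enzyme (10 nM) and compounds were first incubated 15 min at room temperature; enzyme-free buffer wells were negative controls.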
Potency is the fitted concentration of half-maximal effect.

SMILES	Potency	activity, negative = inhibition
Cc1ccc(NC(=O)C2CCCN(c3ncnc4onc(C)c34)C2)cc1Cl (centres undefined)		inactive: 20.1%
CC(=O)Nc1cccc(NC(=O)Nc2cccc3ccccc23)c1	inconclusive: 20 µM [inhibitor, partial curve, poor fit]	
O=C(N=C1SCC(=O)N1c1ccccc1Cl)c1ccccc1	inconclusive: 70.8 µM [inhibitor, partial curve]	
CNCC(=O)O	inconclusive: 25.1 µM [inhibitor, partial curve, poor fit]	
COc1cc(NC(=O)Cn2c([N+](=O)[O-])cnc2C)c(OC)cc1Cl		inactive: 3.16%
CC(=O)Nc1ccc(S(=O)(=O)Nc2nc3ccccc3nc2Nc2ccc(O)c(C(=O)O)c2)cc1	active: 20 µM	
COc1cccc(SCc2noc(C(=O)NCCC(C)C)c2C(=O)NCCC(C)C)c1	inconclusive: 39.8 µM [inhibitor, single point]	
CC(CC1CC(C)(C)OC1=O)C(=O)Nc1ccc([N+](=O)[O-])cc1 (centres undefined)		inactive: 15.8%
Cc1cccc(-n2c(N)c(C(=O)N3CCN(C)CC3)sc2=S)c1	inconclusive: 17.8 µM [inhibitor, partial curve]	
COc1ccc(NC(=O)c2nnn(CC(=O)Nc3cc(C)cc(C)c3)c2N)c(OC)c1	inconclusive: 56.2 µM [inhibitor, partial curve, poor fit]	
O=C(CSc1nc2[nH]c(=O)cc(O)c2s1)NCCc1ccccc1	inconclusive: 12.6 µM [inhibitor, partial curve]	
COc1ccccc1OC(=O)c1cc(Cl)nc2ccccc12	inconclusive: 50.1 µM [inhibitor, partial curve]	
Cc1cccc2nc3c(nc12)CCCC3		inactive: -4.58%
O=C(CCc1ccccc1)Nc1ccc(NC(=O)c2ccco2)cc1	inconclusive: 79.4 µM [inhibitor, partial curve, poor fit]	
CCn1cc(C(=O)O)c(=O)c2cc(F)c(N3CCN(C(=S)NC(=O)c4cccc(F)c4)CC3)cc21		inactive: -1.53%
O=C(Nc1cccs1)Nc1cccnc1Cl	inconclusive: 25.1 µM [inhibitor, partial curve, poor fit]	
OCCC1CN(Cc2cccn2-c2ncccn2)CCN1C1CCCC1 (centres undefined)		inactive: 14.6%
CCN(CC)CCC(=O)N1C/C(=C/c2ccccc2)C(=O)/C(=C\c2ccccc2)C1	inconclusive: 25.1 µM [inhibitor, single point]	
CN(C)c1ccc(CNC2C3CC4CC(C3)CC2C4)cc1 (centres undefined)	inconclusive: 25.1 µM [inhibitor, partial curve]	
Cc1nc(SCC(=O)Nc2cc(C)on2)c2c(C)c(C)sc2n1	inconclusive: 79.4 µM [inhibitor, partial curve]	
O=C(CCOc1ccccc1)Nc1ccc(S(=O)(=O)N2CCCC2)cc1		inactive: 0.0982%
COc1ccccc1NC(=O)CSC(N)=O	inconclusive: 11.2 µM [inhibitor, partial curve, poor fit]	

3 structures already listed, arranged by molecular weight, descending.
SMILES	Potency	activity, negative = inhibition
COc1ccc(NC(=O)c2nnn(CC(=O)Nc3cc(C)cc(C)c3)c2N)c(OC)c1	inconclusive: 56.2 µM [inhibitor, partial curve, poor fit]	
CCN(CC)CCC(=O)N1C/C(=C/c2ccccc2)C(=O)/C(=C\c2ccccc2)C1	inconclusive: 25.1 µM [inhibitor, single point]	
Cc1ccc(NC(=O)C2CCCN(c3ncnc4onc(C)c34)C2)cc1Cl (centres undefined)		inactive: 20.1%

Additional entries:

SMILES	Potency	activity, negative = inhibition
CC(C)CCn1c(=O)c2sccc2n2c(CCCC(=O)Nc3ccc(C(C)C)cc3)nnc12	inconclusive: 31.6 µM [inhibitor, single point]	
CCOC(=O)CC(NS(=O)(=O)c1cc(-c2cc(C)no2)ccc1C)c1ccc(C)cc1 (centres undefined)		inactive: -12%
O=C(NCCc1ccc2c(c1)OCCO2)c1cc(S(=O)(=O)N2CCCC2)ccc1Br	inconclusive: 100 µM [inhibitor, partial curve, poor fit]	
Cc1cc(C)c2c(=O)n(CC(=O)Nc3cccc(F)c3)sc2n1	inconclusive: 17.8 µM [inhibitor, partial curve, poor fit]	
CN(C(=O)CSc1nc2ccccc2[nH]1)c1ccc(F)cc1		inactive: 28%
Cc1cc(-c2ccccc2)nc(N/N=C/c2ccco2)n1	inconclusive: 44.7 µM [inhibitor, partial curve, poor fit]	
O=C(CC1N=C2c3ccccc3N=C(SCC(=O)Nc3ccccc3F)N2C1=O)NCc1ccc2c(c1)OCO2 (centres undefined)		inactive: -6.27%
Cc1ccc(/C=C2\C(=N)N3N=C(CC(=O)N4CCOCC4)SC3=NC2=O)o1	inconclusive: 25.1 µM [inhibitor, full curve]	
Cc1nc(NC(=O)CSc2nnc(-c3ccncc3)n2C)sc1C	inconclusive: 89.1 µM [inhibitor, partial curve]	
CCc1ccc2ncc(C(=O)c3ccccc3)c(N3CCOCC3)c2c1	inconclusive: 31.6 µM [inhibitor, single point]	
CCCNC(=O)/C(C#N)=C1\N=C(NC(=O)c2cccs2)c2ccccc21	inconclusive: 89.1 µM [inhibitor, single point]	
Cc1ccccc1NC(=O)C1CCN(S(=O)(=O)c2ccccc2)CC1		inactive: 30.3%
COc1ccc(NC(=O)COc2ccccc2C(=O)Nc2ccccc2)cc1		inactive: 46.1%
COc1cc(NC(=O)Cn2cnc(S(=O)(=O)N3CCOCC3)c2)cc(OC)c1OC	inconclusive: 79.4 µM [inhibitor, single point]	
CCN1C(=O)[C@H]2[C@H]3CN=C(SCc4ccc(OC)cc4)N3[C@@](CC)(C(=O)OC)[C@H]2C1=O	inconclusive: 39.8 µM [inhibitor, single point]	
O=S(=O)(c1cc(O)ccc1O)c1cccc2c(S(=O)(=O)c3cc(O)ccc3O)cccc12	active: 7.94 µM	
O=C(/C=C/Nc1ccc(F)c(Cl)c1)c1ccco1	inconclusive: 10 µM [inhibitor, partial curve, poor fit]	
Cc1cc(C)c2c(C)nn(-c3ccccc3)c2n1		inactive: -1.15%
COc1ccc(/C=N/Nc2nc(Nc3ccccc3)nc(N3CCCCC3)n2)c(OC)c1		inactive: 3.8%
O=C(CSc1ncn[nH]1)N1N=C2/C(=C/c3ccccc3)CCCC2C1c1ccccc1 (centres undefined)		inactive: 14%
O=C(COc1ccccc1)Nc1sc2c(c1C(=O)Nc1ccccc1)CCCCC2	inconclusive: 56.2 µM [inhibitor, partial curve, poor fit]	
Cc1csc(NC(=O)COc2ccc3c(C)cc(=O)oc3c2)n1	inconclusive: 31.6 µM [inhibitor, single point]	
COc1ccc(C2N=C(c3ccccc3)C(C)(C)N2O)cc1OC (centres undefined)	inconclusive: 79.4 µM [inhibitor, partial curve, poor fit]	

Filtered by structure, those above containing an aryl thioether with sulfur outside any ring
SMILES	Potency	activity, negative = inhibition
COc1cccc(SCc2noc(C(=O)NCCC(C)C)c2C(=O)NCCC(C)C)c1	inconclusive: 39.8 µM [inhibitor, single point]	
O=C(CSc1nc2[nH]c(=O)cc(O)c2s1)NCCc1ccccc1	inconclusive: 12.6 µM [inhibitor, partial curve]	
Cc1nc(SCC(=O)Nc2cc(C)on2)c2c(C)c(C)sc2n1	inconclusive: 79.4 µM [inhibitor, partial curve]	
CN(C(=O)CSc1nc2ccccc2[nH]1)c1ccc(F)cc1		inactive: 28%
Cc1nc(NC(=O)CSc2nnc(-c3ccncc3)n2C)sc1C	inconclusive: 89.1 µM [inhibitor, partial curve]	
O=C(CSc1ncn[nH]1)N1N=C2/C(=C/c3ccccc3)CCCC2C1c1ccccc1 (centres undefined)		inactive: 14%

Next compounds follow:

SMILES	Potency	activity, negative = inhibition
CCOc1c2ccc(C(=O)NCc3ccc4c(c3)OCO4)cc2nn1CCOC		inactive: -0.951%
Cc1onc(-c2c(F)cccc2Cl)c1C(=O)OCN1C(=O)c2ccccc2C1=O	inconclusive: 7.94 µM [inhibitor, full curve, poor fit]	
CN(CCO)c1ccc(/C=N/Nc2nncc3ccccc23)cc1	inconclusive: 17.8 µM [inhibitor, partial curve, poor fit]	
COc1ccc2noc3c2c1C(=O)c1ccccc1-3	inconclusive: 11.2 µM [inhibitor, partial curve, poor fit]	
Cc1ccccc1NC(=O)c1sc2nc3c(c(-c4ccco4)c2c1N)CCC3	inconclusive: 31.6 µM [inhibitor, single point]	
COc1ccc(OCCOc2ccc(N(C)S(=O)(=O)c3ccccc3)cc2)cc1	inconclusive: 39.8 µM [inhibitor, single point]	
CCC(=O)N1CCc2cc(S(=O)(=O)NC(Cc3ccccc3)C(=O)NCc3ccc(C)cc3)ccc21 (centres undefined)	inconclusive: 89.1 µM [inhibitor, single point]	
COc1cc(C(=O)NCc2nnnn2-c2ccc(C)c(C)c2)cc(OC)c1OC		inactive: 23.6%
O=C(Nc1ccc(O)cc1C(=O)O)c1ccc2c(c1)C(=O)N(Cc1ccco1)C2=O	inconclusive: 35.5 µM [inhibitor, partial curve]	
C[C@H]1CN=C(N(C)C)N1CCCCc1ccccc1	inconclusive: 25.1 µM [inhibitor, full curve, poor fit]	
Cc1ccc(-c2nnc(Cc3ccc(Cl)cc3)o2)cc1	inconclusive: 89.1 µM [inhibitor, single point]	
Fc1ccc(SCCc2ccncc2)cc1	inconclusive: 20 µM [inhibitor, partial curve]	
CC(=O)Nc1ccc(NC(=O)CSc2cn(CC(=O)N(C(C)C)C(C)C)c3ccccc23)cc1		inactive: 35.4%
CCOC(=O)c1ccccc1NC(=O)c1ccc2c(SCC(=O)O)c3c(nc2c1)CCCC3		inactive: -11.1%
COC(=O)c1cccc(-n2sc3ccccc3c2=O)c1	inconclusive: 39.8 µM [inhibitor, single point]	
Cc1ccc(NCC(=O)N=Nc2c(O)[nH]c3ccc([N+](=O)[O-])cc23)cc1	inconclusive: 28.2 µM [inhibitor, partial curve]	
O=c1c(-c2cc(-c3ccc(F)cc3)nc3c2COc2ccc(Cl)cc2-3)coc2ccc(F)cc12		inactive: 26.9%
O=C(N/N=C/c1ccccn1)c1cc(C2CC2)[nH]n1	inconclusive: 17.8 µM [inhibitor, partial curve, poor fit]	
O=c1c2[nH]c3ccccc3c2ncn1Cc1ccncc1	inconclusive: 39.8 µM [inhibitor, single point]	
COc1ccc(N=c2ssnc2Cl)cc1	inconclusive: 7.08 µM [inhibitor, single point]	
COc1ccc(-c2nc(C)c(CCNC(=O)c3ccco3)s2)cc1		inactive: -9.33%
CCC(CC)n1[nH]c(=O)c2c(C)cc(C)nc21	inconclusive: 0.891 µM [inhibitor, full curve, poor fit]	
Cc1ccc(C2=NOC(=O)/C2=C\C=C\c2ccccc2)cc1	inconclusive: 17.8 µM [inhibitor, partial curve, poor fit]	
